Patent US20250041624A1, “METHOD FOR ENHANCING ACTIVITY OF PHOTOSENSITIZER BY MAGNETIC FIELD” (PEKING UNIVERSITY, priority 2021, published 2025)

Assay: Reaction rate of KI with 1O2 (I3− absorbance at 350 nm) under light and magnetic field
Format: physicochemical
Conditions: RB; MF increasing from 135 mT to 850 mT
Description: (1) The photosensitizers Rose Bengal (RB) and potassium iodide KI are dissolved in water, with the concentrations of photosensitizer and KI is 10 μmol/L and 10 mmol/L, respectively in the resulting solution. […] The above UV-vis absorption spectra tests are performed in the strength range of the magnetic field from 0 to 850 mT respectively.
(2) The photosensitizer chlorin e6 (Ce6, Chlorin e6) and potassium iodide KI are dissolved in water, with the concentrations of the photosensitizer and KI of 10 μmol/L and 10 mmol/L in the resulting solutions. In a magnetic field with certain strength, the solutions are exposed to a 635 nm LED lamp (light emitting diode) at a power of 5 mW·cm^−2, and tested for absorption spectra every 15 seconds over 5 min, and the absorbance at 350 nm is recorded to obtain absorbance versus time curves. The above UV-vis absorption spectra are obtained at a magnetic field strength range from 0 to 850 mT, respectively. […]
Under irradiation conditions, photosensitizer is excited to produce singlet oxygen ^1O2, and KI reacts with ^1O2 to give I2 and target detector, iodine triion I3^−, characterized by absorption bands centered at 300 and 350 nm in UV-vis absorption spectrum. The reaction rate is R, which is proportional to the slope of absorbance-time curve of iodine triion I3^− at 350 nm. […]

O=C1OC2(c3cc(I)c(O)c(I)c3Oc3c2cc(I)c(O)c3I)c2c(Cl)c(Cl)c(Cl)c(Cl)c21 [RB, Rose Bengal]
trend of mfeR: rapidly decreases
